Results from patent US20040123344A1, “Novel gene encoding an f-box protein which regulates leaf longevity in arabidopsis thaliana and mutant gene thereof” (priority 2000, published 2004).
These are yes or no findings as the source states them, for the method shown. Binding seen in cells or lysates may run through a third protein. Some results given as binding are weak or reduced against the parent protein; the word gives no strength.

Chains of the proteins cited; added tags and fusions are not shown.
UniProt Q39255: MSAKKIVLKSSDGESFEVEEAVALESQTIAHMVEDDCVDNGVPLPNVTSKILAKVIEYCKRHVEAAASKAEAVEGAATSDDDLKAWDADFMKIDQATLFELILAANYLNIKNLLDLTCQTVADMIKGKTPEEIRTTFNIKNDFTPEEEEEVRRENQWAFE

Biological target: GST-ASK1 fusion protein (Arabidopsis) (UniProt Q39255)
Assay: in vitro GST pull-down of 35S-labeled protein

B1: 35S-labeled mutant type ore9 protein, in vitro translated (protein)
chain: MASTTLSDLPDVILSTISSLVSDSRARNSLSLVSHKFLALERSTRSHLTIRGNARDLSLVPDCFRSISHLDLSFLSPWGHTLLASLPIDHQNLLALRLKFCFPFVESLNVYTRSPSSLELLLPQWPRIRHIKLLRWHQRASQIPTGGDFVPIFEHCGGFLESLDLSNFYHWTEDLPPVLLRYADVAARLTRLDLLTASFTEGYKSSEIVSITKSCPNLKTFRVACTFDPRYFEFVGDETLSAVATSSPKLTLLHMVDTASLANPRAIPGTEAGDSAVTAGTLIEVFSGLPNLEELVLDVGKDVKHSGVALEALNSKCKKLRVLKLG
modifications: [35S]-methionine label
- binding: binds

B2: 35S-labeled ORE9 (1-327), in vitro translated (protein)
chain: MASTTLSDLPDVILSTISSLVSDSRARNSLSLVSHKFLALERSTRSHLTIRGNARDLSLVPDCFRSISHLDLSFLSPWGHTLLASLPIDHQNLLALRLKFCFPFVESLNVYTRSPSSLELLLPQWPRIRHIKLLRWHQRASQIPTGGDFVPIFEHCGGFLESLDLSNFYHWTEDLPPVLLRYADVAARLTRLDLLTASFTEGYKSSEIVSITKSCPNLKTFRVACTFDPRYFEFVGDETLSAVATSSPKLTLLHMVDTASLANPRAIPGTEAGDSAVTAGTLIEVFSGLPNLEELVLDVGKDVKHSGVALEALNSKCKKLRVLKLGQ
modifications: [35S]-methionine label
- binding: binds
